# Test results: PubChem BioAssay AID2685 (National Center for Advancing Translational Sciences (NCATS), 2010)
# “And” between values parts separate entries of the source, which are not always exact repeats. Equal entries are not always repeated. This is one part of the list. Shown are side measurements of this screen, not its main read-out; they come without a call. Most of these compounds were active or inconclusive in the main read-out, so they are no random draw. Potencies come from curve fits of mixed quality, noted in brackets.
# Test: qHTS Assay for Lipid Storage Modulators in Drosophila S3 Cells;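 for cell number change: cells counted by Cell Tracker Red CMTPX staining in the red channel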
# Details: BODIPY lipid droplet fluorescence, 18-24 h; for cell number change: measured here: cell count max response, cells fed with added oleic acid
# Summary of the method: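 Laser-scanning cytometry quantifies lipid droplet accumulation (500–530 nm total intensity; droplet/cell object ratio) in oleic acid-fed (400 uM added) Drosophila S3 cells treated with a concentration series. 20 uM Triacsin C defined 100% inhibition.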
# [1] = measured here: lipid fluorescence (Fed channel) AC50, cells fed with added oleic acid
# [2] = measured here: cell number channel AC50, cells fed with added oleic acid
SMILES,cell number change,AC50 [1],AC50 [2]
COc1ccccc1C(=O)NC(=O)CSc1nncn1C,-23.9%,–,–
Cc1ccc(/C=C2\SC(=O)N(CCC(=O)N3CCN(C)CC3)C2=O)cc1,-4.5%,"0.13 µM [falling, full curve, poor fit]",–
NC(=O)COC(=O)CSc1ccc2ccccc2c1,-45.6%,–,"6.51 µM [rising, single point]"
Cc1ccc(NC(=O)COC(=O)c2ccc(S(=O)(=O)N3CCCC3)cc2)cc1,-13.7%,–,–
CC(=O)Oc1ccc(Cl)cc1/C=C/c1ccc2ccccc2n1,-25.5%,"20.6 µM [falling, single point]",–
CC(=O)NCC(=O)N(c1c(C)n(C)n(-c2ccccc2)c1=O)C1(C(=O)NC2CCCC2)CCCCC1,–,"5.8 µM [falling, full curve]",–
Cc1ccc(S(=O)(=O)Nc2c(C)n(C)n(-c3ccccc3)c2=O)cc1,7.84% and -33.3%,"580 nM [falling, single point] and 6.51 µM [falling, single point]","6.51 µM [falling, partial curve]"
O=C1NCCN/C1=C\C(=O)c1ccc(Br)cc1,-20.7%,–,–
Nc1nc(Br)c2c(F)cccc2c1-c1ccccc1,23%,–,"0.731 µM [rising, full curve, poor fit]"
CCCCn1c(N)c(N(CC(C)C)C(=O)CN(C)S(=O)(=O)c2ccc(NC(C)=O)cc2)c(=O)[nH]c1=O,10.3%,"29.1 µM [falling, single point]",–
CCOC(=O)C(OC(=O)c1sc(=S)n(C)c1C)C(C)=O (stereo unspecified),87.2%,–,"29.1 µM [rising, single point]"
O=C(CN1CCCc2ccccc21)NC(=O)NCc1ccccc1,–,"2.59 µM [rising, full curve]",–
CCc1ccccc1NC(=O)C1CCCN(c2nccc(C)n2)C1 (stereo unspecified),7.21%,"29.1 µM [rising, single point]",–
COc1ccc(OCC(=O)Nc2cccc(S(=O)(=O)N(C)c3ccccc3)c2)c([N+](=O)[O-])c1,0.535%,"2.06 µM [rising, full curve]",–
Cn1cc([C@@H]2C[C@H]3CN(Cc4cccc(Cl)c4)C(=O)[C@]34CCCN24)c2ccccc21,8.71%,"29.1 µM [falling, single point]",–
O=C(NCc1ccccc1)C1CC(=O)N(C2CCCCC2)C1 (stereo unspecified),-12.8%,"32.6 µM [rising, single point]",–
Nc1c(C(=O)NC2CC2)sc2nc3c(c(-c4ccco4)c12)CC/C3=C/c1ccco1,6.91%,"0.58 µM [rising, full curve, poor fit]","4.61 µM [rising, single point]"
O=C(Nc1ccccc1C1CC1)c1cccs1,5.42%,"0.00461 µM [rising, full curve, poor fit]",–
N#C/C(=C\c1c(N2CCC(C(N)=O)CC2)nc2ccccn2c1=O)C(=O)NC1CCCCC1,–,"0.326 µM [falling, full curve]",–
COCCN1C(=O)N(c2cccc(OC)c2)C(=O)C1CC(=O)Nc1ccc(Cl)cc1 (stereo unspecified),9.59%,"32.6 µM [rising, single point]",–

SMILES,cell number change,AC50 [1],AC50 [2]
Cc1cc(C)c(NC(=O)CSc2nc(=O)n3cc(C)ccc3n2)c(C)c1,–,"0.13 µM [rising, full curve, poor fit]",–
O=C(Nc1cccc2cccc(NC(=O)c3ccco3)c12)c1ccco1,13.6%,"29.1 µM [rising, partial curve, poor fit]",–
N#CCCn1c(-c2nonc2NC(=O)c2ccccc2Cl)nc2ccccc21,-24.7%,"1.64 µM [falling, full curve, poor fit]",–
O=C(OCCN1CCOCC1)c1ccc(O)cc1,-12%,–,–
CCCCC(=O)Nc1ncc([N+](=O)[O-])s1,-45.9%,"35.5 µM [falling, partial curve, poor fit]","17.8 µM [falling, single point]"
O=S(=O)(Nc1ccc(N2CCOCC2)cc1)c1ccc(Cl)s1,46.3%,"4.61 µM [rising, single point]","8.2 µM [rising, partial curve, poor fit]"
O=C1C=C(N(CCO)Cc2ccccc2)c2ccccc2C1=O,–,"23.1 µM [falling, single point]",–
COc1cc(CN2CCN(Cc3ccc4cc(F)ccc4n3)CC2CCO)cc(OC)c1 (stereo unspecified),-7.61%,–,–
CCOC(=O)c1c(NC(=O)CN2C(=O)c3ccccc3C2=O)sc(Cc2ccc3c(c2)OCO3)c1C,-6.41%,"1.46 µM [rising, partial curve]",–
CC(=O)N1c2ccc(S(=O)(=O)N3CCC(C(=O)NCc4ccc(Cl)cc4)CC3)cc2CC1C (stereo unspecified),6.93%,"29.1 µM [rising, single point]",–
CCOC(=O)N1CCN(C(=O)c2ccccc2NC(=O)c2ccc(F)cc2)CC1,–,"5.17 µM [falling, full curve]",–
O=C(Nc1ccccc1)c1nc[nH]c1C(=O)N1CCN(c2ccccc2)CC1,1.68%,"0.116 µM [rising, full curve, poor fit]",–
Cc1cc(-c2nnc(SCC(=O)Nc3ccccc3C)n2N)n[nH]1,-17.7%,"0.517 µM [falling, single point]",–
O=C1Nc2ccccc2N2CCCC12 (stereo unspecified),-7.32%,"20.6 µM [falling, single point]",–
CCCCOCCCNC(=O)Cc1ccccc1OC,24.5%,–,–
COCCNC(=O)c1ccc(NS(C)(=O)=O)cc1,-19.9%,"0.00731 µM [rising, full curve, poor fit]",–
Cc1cccc(-n2ncc3c2CCCC3NC(=O)CCc2cccnc2)c1C (stereo unspecified),-26.7%,"29.1 µM [falling, single point]",–
CCc1cc(=O)oc2c(CN3CCN(C)CC3)c(O)c(Cl)cc12,-24.5%,"0.00461 µM [falling, full curve, poor fit]","3.26 µM [falling, full curve, poor fit]"
O=[N+]([O-])c1ccc(COc2ccc(-c3[nH]ncc3-c3ccccc3)c(O)c2)cc1,-33.1%,–,"20.6 µM [falling, single point]"
CN(C(=O)c1ccccc1Br)C1CCS(=O)(=O)C1 (stereo unspecified),-43.4%,–,"29.1 µM [falling, single point]"

# Part of the list above, reduced to AC50 [1].
SMILES	AC50 [1]
O=C(Nc1ccccc1C1CC1)c1cccs1	0.00461 µM [rising, full curve, poor fit]
N#C/C(=C\c1c(N2CCC(C(N)=O)CC2)nc2ccccn2c1=O)C(=O)NC1CCCCC1	0.326 µM [falling, full curve]
COCCN1C(=O)N(c2cccc(OC)c2)C(=O)C1CC(=O)Nc1ccc(Cl)cc1 (stereo unspecified)	32.6 µM [rising, single point]

# Next part.

SMILES,cell number change,AC50 [1],AC50 [2]
CC(=O)N=c1sc2c3ccccc3ccc2n1C,-12.4%,"0.00461 µM [rising, full curve, poor fit]",–
Cc1ccc(/C=C/C(=O)Nc2ccc(S(=O)(=O)Nc3onc(C)c3C)cc2)cc1,-1.28%,–,–
Oc1c(Cl)cc(Cl)cc1CNc1nc2ccccc2[nH]1,0.587%,–,–
COc1ccc(C(=O)NC(=S)NNC(=O)CNC(=O)C2CCCCC2)cc1,26.7%,"29.1 µM [rising, single point]",–
CN(CCC#N)c1ccc(/C=C(\C#N)c2ccccn2)cc1,-10.4%,"18.4 µM [falling, single point]",–
Cn1cnnc1SCC(=O)Nc1ncc(C(F)(F)F)cc1Cl,–,"6.51 µM [falling, partial curve, poor fit]","0.206 µM [falling, full curve]"
Cn1c(=O)c(C(=O)COC(=O)c2cc(-c3ccco3)nc3ccccc23)c(N)n(CC2CC2)c1=O,-1.08%,"0.517 µM [rising, partial curve, poor fit]",–
O=C(CSc1cccc[n+]1[O-])C12CC3CC(CC(C3)C1)C2,1.47%,–,"0.82 µM [falling, full curve, poor fit]"
O=C(Nc1ccc(Cl)c(Cl)c1)Nc1ccc(Br)cc1F,-59.9%,"13 µM [falling, partial curve]","20.6 µM [falling, single point]"
COc1ccc(CN(C)CC(=O)Nc2sc3c(c2C#N)CCC3)c(OC)c1,–,"29.1 µM [rising, single point]",–
CCOC(=O)C1=C(C)C2C3C(=O)N(c4cc(C)ccc4C)C(=O)C3C1(C)C1C(=O)N(c3cc(C)ccc3C)C(=O)C21 (stereo unspecified),3.21%,"29.1 µM [falling, single point]",–
COC(=O)C(C)Oc1ccc2c3c(c(=O)oc2c1)CCCCC3 (stereo unspecified),–,"6.51 µM [falling, single point]","4.11 µM [falling, single point]"
CCOC(=O)CSc1nc(N)c(C#N)c(CC(C)C)c1C#N,21.2%,"29.1 µM [rising, single point]",–
CCOc1ccccc1N/C(=N/c1nc(C)cc(C)n1)NC(=O)Nc1ccc(Cl)c(Cl)c1,19.2%,"29.1 µM [rising, single point]",–
Cn1cccc1C(=O)NC(=O)COC(=O)c1cc(S(=O)(=O)N2CCCCC2)ccc1Cl,-36.1%,"29.1 µM [falling, single point]","29.1 µM [falling, single point]"
CCN(Cc1ccccc1)C(=O)CCNS(=O)(=O)c1ccc2c(c1)CC(C)N2C(C)=O (stereo unspecified),27.2%,–,–
CN1CCC(N(C)C(=O)c2cc(=O)c3ccccc3o2)CC1,-8.14%,"0.116 µM [falling, full curve, poor fit]",–
Cn1c(=O)[nH]c(=O)c2c1nc(N1CCCCCC1)n2CC(=O)c1ccccc1,-11.6%,"0.00461 µM [falling, full curve, poor fit]",–
CCn1c(SCC(=O)Nc2nc(C)c(C(=O)OC)s2)nnc1C(C)C,3.19%,"13 µM [rising, single point]",–
Cc1nnc(N2CCCC(C(=O)NCc3ccccc3F)C2)c2nn(-c3ccccc3)c(C)c12 (stereo unspecified),9.54%,"0.146 µM [falling, full curve, poor fit]",–
